According to US8104331B2, “Method and device to extract components contained in a fluid” (Noab Biodiscoveries Inc., priority 2006, dated 2012):

Legend:
[1] = In vivo SPME sampling of whole blood for pharmacokinetics after i.v. bolus diazepam; conditions: male, Sprague-Dawley, rat, iv
Procedure: (§1) Animal Experiments: Male Sprague-Dawley rats (Charles River Labs, St. Constant, PQ) with an average weight of 300 g are acclimatized to their new environment for a minimum of 5 days prior to surgery. […] The catheters are plugged with removable metal plugs at the free end and then exteriorized by threading them under the skin and through a small incision at the nape of the neck. Animals are allowed to recover overnight prior to dosing. […] In vivo mouse experiments are conducted with conscious male Swiss Webster mice implanted with a carotid artery catheter. All procedures followed have been reviewed by the NoAb BioDiscoveries Inc. animal care committee and were performed in accordance with the principles of the Canadian Council on Animal Care (CCAC).
A device to extract components is attached to the carotid artery catheter prior to dosing each rat or mouse. To insert the probes, the tip of the SPME probe needle is used to pierce the septum of the device. […]
(§2) Areas under the plasma concentration versus time curves (AUCs) represent the areas under the curve from the time of dosing and extrapolated to infinity. […] Mean residence times (MRT) are calculated as: AUMC/AUC, where AUMC denotes the area under the first moment curve. The steady-state volume of distribution (Vss) is calculated as: CL*MRT.
(§3) AUCs are calculated by the linear/log-linear trapezoidal rule. […]

[2] = Conventional plasma sampling and analysis for pharmacokinetics after i.v. bolus diazepam; conditions: male, Sprague-Dawley, rat, iv
Procedure: as §1
For each time point (5, 15, 30, 45, 60, 75, 120, 180, 240 and 360 min), the probes are in place for about two (2) minutes before the stated analysis time and blood draws are performed immediately after removing the probes. […]
as §2, §3

With `CN1C(=O)CN=C(c2ccccc2)c2cc(Cl)ccc21` [diazepam] the AUC ([1]; 0.5 mg/kg) was 0.172 µg·h/mL, the AUC ([1]; 1 mg/kg) was 0.236 µg·h/mL and the AUC ([2]; 0.5 mg/kg) was 0.157 µg·h/mL. It also gave an AUC ([2]; 1 mg/kg) of 0.303 µg·h/mL.
